Laboratory results: PubChem BioAssay AID1224830 (NIAID, 2016)

Screen: 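Host factors that control LPS-induced TNF expression in human macrophages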 (primary screen)
Cells: human THP-1 monocytic leukaemia cells, TNF dual-luciferase reporter clone, PMA-differentiated to macrophage-like cells
Reagents: siRNA pool against human genes, 50 nM
Duration: LPS for 4 h, given about 3 days after siRNA transfection
Treatment: bacterial LPS (TLR4 ligand), 10 ng/ml
Measured: 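Ratio of firefly to renilla light, scaled to the plate median and expressed as a robust z-score per replicate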
Scale: TNF reporter robust z-score: higher = stronger TNF reporter response to LPS
Rule for the call: 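a well is active when its z-score exceeds 2.8 or falls below -1.5; control wells carry no call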
Shown is a random part of about 18,000 reagents. In the full data, about 2,900 (16%) are marked active. 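Calls are made per well; low scores hint the gene aids the LPS response, high scores that it dampens it.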 Repeated entries: four replicate wells of each siRNA pool.

| gene | TNF reporter robust z-score | activity call |
| --- | --- | --- |
| MTERF3 | -0.15 | inactive |
| MTERF3 | -1.52 | active |
| MTERF3 | -1.2 | inactive |
| MTERF3 | -0.91 | inactive |
| SPATA8 | 0.93 | inactive |
| SPATA8 | 2.87 | active |
| SPATA8 | 1.88 | inactive |
| SPATA8 | 0.89 | inactive |
| BPNT2 | 1.92 | inactive |
| BPNT2 | 2.91 | active |
| BPNT2 | 1.11 | inactive |
| BPNT2 | 2.03 | inactive |
| NDUFA10 | -0.26 | inactive |
| NDUFA10 | 0 | inactive |
| NDUFA10 | -0.74 | inactive |
| NDUFA10 | 1.91 | inactive |
| SLC28A2 | -0.6 | inactive |
| SLC28A2 | 1.12 | inactive |
| SLC28A2 | -0.19 | inactive |
| SLC28A2 | 0.18 | inactive |
| SEMA3G | 0.07 | inactive |
| SEMA3G | 0.48 | inactive |
| SEMA3G | 0.18 | inactive |
| SEMA3G | 1.02 | inactive |
| KIF2A | -0.16 | inactive |
| KIF2A | 1.92 | inactive |
| KIF2A | 0.96 | inactive |
| KIF2A | 1.16 | inactive |
| PDZD8 | 0.06 | inactive |
| PDZD8 | 1.25 | inactive |
| PDZD8 | -0.66 | inactive |
| PDZD8 | -0.89 | inactive |
| THEM5 | 0.1 | inactive |
| THEM5 | 1.16 | inactive |
| THEM5 | 2.27 | inactive |
| THEM5 | -1.09 | inactive |
| GTF2H2C_2 | -0.54 | inactive |
| GTF2H2C_2 | -0.3 | inactive |
| GTF2H2C_2 | -0.48 | inactive |
| GTF2H2C_2 | -0.81 | inactive |
| H2AC25 | 1.67 | inactive |
| H2AC25 | 2.14 | inactive |
| H2AC25 | 1.74 | inactive |
| H2AC25 | 4.14 | active |
| ESR2 | 0.11 | inactive |
| ESR2 | 0.52 | inactive |
| ESR2 | 0.71 | inactive |
| ESR2 | 1.07 | inactive |

Hits, among the entries above:
| gene | TNF reporter robust z-score | activity call |
| --- | --- | --- |
| MTERF3 | -1.52 | active |
| SPATA8 | 2.87 | active |
| BPNT2 | 2.91 | active |
| H2AC25 | 4.14 | active |
